# Measurements as given in PubChem BioAssay AID1347076 (National Center for Advancing Translational Sciences (NCATS), 2019).
# Screen size: about 400,000 compounds; about 13,000 (3.2%) were called active. Inconclusive results, whose numbers are uncertain, are shown with a selection of clear calls. Calls follow the shape of the dose curve; as a rule, active = well fitted cell-killing curve with a large enough effect; inconclusive = small, poorly fitted or top-dose-only effect, or effect the other way; inactive = flat fitted curve, though single readings scatter. Potencies beside an inconclusive call are fits to weak or partial responses and may not hold up.
# Assay: qHTS assay for MDR1-selective chemotherapeutics: Primary screen using the drug-selected MDR subline cells KB-V1; also: nearly all actives have a fitted effect of over 60% in size
# Settings: KB-V1 MDR cells viability, CellTiter-Glo, 72 h; activity change, negative = cytotoxicity: at 46.1 µM (top of the series)
# In short: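 Cells of the MDR subline KB-V1 are plated, dosed with compound at multiple concentrations, and incubated 72 h at 37 degrees C; CellTiter-Glo is then added and luminescence read after 10 min.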
# % is scaled to controls: 0 for no effect and ±100 for the full control effect; potency is read from the fitted curve at half-maximal effect.
SMILES,Potency,"activity change, negative = cytotoxicity"
O=C(c1ccco1)N1CCN(c2ccnc3cc(Cl)ccc23)CC1,"inconclusive: 25.9 µM [cytotoxic, single point]",
Cc1noc(Cn2c(=O)c3ccccc3n(CC(=O)Nc3ccc(Cl)cc3)c2=O)n1,,inactive: 0%
Cc1ccc(OCCNC(=O)c2ccc(COc3ccccc3)o2)cc1,"inconclusive: 9.2 µM [cytotoxic, partial curve]",
Cc1ccccc1OCC(=O)Nc1ccc2nc(SCCOc3ccccc3)sc2c1,"inconclusive: 16.4 µM [rising, single point]",
Cc1ccc2c(C)c(C(=O)N3CCC(C(N)=O)(N4CCCCC4)CC3)oc2c1C,"inconclusive: 5.17 µM [cytotoxic, partial curve]",
O=C(CSc1nc2ccccc2nc1Cc1ccc(Cl)cc1)N1CCN(c2ccccc2F)CC1,,inactive: 3.24%
CCOC(=O)c1cc2cc([N+](=O)[O-])ccc2oc1=O,,inactive: 17.9%
Cc1nc(SCC(=O)c2cc(C)n(C3CC3)c2C)c2ccccc2n1,"inconclusive: 11.6 µM [cytotoxic, partial curve]",
Cc1ccc(-c2nnc(Nc3ccc(S(N)(=O)=O)cc3)c3ccccc23)cc1S(=O)(=O)N1CCOCC1,"inconclusive: 7.31 µM [rising, partial curve, poor fit]",
CCOC(=O)N1CCN(S(=O)(=O)c2ccc(C)c([N+](=O)[O-])c2)CC1,"inconclusive: 29.1 µM [cytotoxic, single point]",
CCCNC(=O)c1nnsc1S(=O)c1ccc(Cl)cc1 (stereo unspecified),,inactive: -23.7%
COc1ccc(C2OC(=O)CC2C(=O)NC2CCCCCC2)cc1OC (stereo unspecified),active: 13 µM,
CN(C(=O)CSc1nc2ccc(NC(=O)CCc3ccccc3)cc2s1)c1ccccc1,"inconclusive: 16.4 µM [cytotoxic, single point]",
CC(=O)Nc1ccc(C(=O)CN2C(=O)NC3(CCCc4ccccc43)C2=O)c(F)c1 (stereo unspecified),"inconclusive: 23.1 µM [rising, single point]",
Cc1ccc(S(=O)(=O)N2CCCN(S(=O)(=O)c3ccc(C)c(C)c3)CC2)cc1C,active: 4.11 µM,
CCOCCCNC(=O)C1CCN(C(=O)N(C)C)CC1,,inactive: -3.52%
CCn1c(-c2ccc3ncccc3c2)n[nH]c1=S,,inactive: -23.9%
CC(Oc1cccc(Br)c1)C(=O)NNC(=O)CCS(=O)(=O)c1ccccc1 (stereo unspecified),,inconclusive: 6.51%
O=C(COC(=O)c1cccc(F)c1)Nc1cccnc1Cl,"inconclusive: 16.4 µM [rising, single point]",
COc1ccccc1NC(=O)CN(Cc1ccco1)C(=O)c1ccc(-n2nc(C)cc2C)cc1,active: 2.06 µM,
CN(CC(=O)Nc1cccnc1)S(=O)(=O)c1cc(Cl)ccc1Cl,"inconclusive: 16.4 µM [cytotoxic, single point]",
Cc1ccc(/C=N/Nc2nncc(-c3ccccc3)n2)o1,,inactive: -17.7%
COC(=O)[C@]12CCCCC=C1N(CCC1=CCCCC1)C(=O)[C@H](CC(=O)NCCCCc1ccccc1)C2,,inactive: -28.2%

SMILES,Potency,"activity change, negative = cytotoxicity"
CCC(C)Nc1nc(C)nc2c1oc1ccccc12 (stereo unspecified),"inconclusive: 9.2 µM [cytotoxic, partial curve, poor fit]",
O=C(Nc1ncc([N+](=O)[O-])s1)c1cccc([N+](=O)[O-])c1,"inconclusive: 32.6 µM [cytotoxic, single point]",
CC(C)CCNC(=O)c1ccc2c(c1)ncn2C1CCCCC1,active: 13 µM,
CCc1cccc(NC(c2nnc(-c3ccccc3)o2)c2ccc(F)cc2Cl)c1 (stereo unspecified),,inactive: -7.73%
Cc1ccc(NC(=O)NCC2CCN(Cc3cccc(Cl)c3)CC2)cc1Cl,"inconclusive: 23.1 µM [cytotoxic, partial curve, poor fit]",
CC1CC(C)CN(C(=O)CSc2nc(Cc3cccs3)nc3ccccc23)C1 (stereo unspecified),"inconclusive: 25.9 µM [cytotoxic, single point]",
CC(=O)ONC(=Nc1ccccc1)c1nonc1N,"inconclusive: 29.1 µM [rising, single point]",
CCCC(=O)Nc1cc(-c2nc3cccnc3s2)ccc1C,,inactive: -11.1%
CCCCN1CC[C@H]2C=CC[C@@H](C(=O)Nc3ccccc3)[C@H]2C1=O,"inconclusive: 9.2 µM [cytotoxic, partial curve]",
COc1cccc(CN(C)CC(=O)N2CCN(S(=O)(=O)c3ccccc3)CC2)c1,,inactive: -4.05%
COc1cc(O)ccc1-c1nc2cc(C)ccn2c1Nc1ccccc1C,"inconclusive: 23.1 µM [cytotoxic, single point]",
NS(=O)(=O)c1ccc(NC(=S)NC2CCCCCC2)cc1,"inconclusive: 25.9 µM [rising, single point]",
Cc1ccc(O)c(Nc2c3ccccc3nc3ccccc23)c1,,inactive: -22.4%
COc1ccc(CCC(C)NC2C3CC4CC(C3)CC2C4)cc1 (stereo unspecified),"inconclusive: 16.4 µM [cytotoxic, partial curve, poor fit]",
CC(C)(C)CC(=O)Nc1ccc(-c2nnc3n2CCCCC3)cc1,"inconclusive: 23.1 µM [rising, single point]",
CC(C)C[C@H](NC(=O)c1[nH]cnc1C(=O)N[C@@H](C)C(=O)OC(C)(C)C)C(=O)OC(C)(C)C,"inconclusive: 29.1 µM [cytotoxic, single point]",
CCOC(=O)[C@]12CCCC=C1N(CCC1=CCCCC1)C(=O)[C@H](CC(=O)NCC1CCCCC1)C2,active: 14.6 µM,
COc1ccc(C(C)=O)cc1COc1ccc(-n2cnnn2)cc1,active: 20.6 µM,
CCCCCCCCN1C(=O)[C@H](CC(=O)NCCc2ccccc2OC)C[C@@]2(C(=O)OCC)CCC=C12,"inconclusive: 8.2 µM [cytotoxic, partial curve]",
O=C(Nc1cccc(F)c1)C1CCN(S(=O)(=O)c2ccc3[nH]c4c(c3c2)CCCCC4)CC1,"inconclusive: 18.4 µM [cytotoxic, single point]",
COc1ccc(Oc2nc(-c3ccncc3)nc3ccccc23)cc1,,inactive: -9.19%
O=C(/C=C/c1ccc(Cl)cc1Cl)N(Cc1ccc(Cl)cc1)C1CCS(=O)(=O)C1 (stereo unspecified),active: 5.8 µM,
CCOC(=O)c1ccc(NC(=O)CCNC(=O)c2ccc([N+](=O)[O-])cc2)cc1,active: 14.6 µM,

# Reprinted at random: two entries already listed
SMILES,Potency,"activity change, negative = cytotoxicity"
CCn1c(-c2ccc3ncccc3c2)n[nH]c1=S,,inactive: -23.9%
CC(=O)Nc1ccc(C(=O)CN2C(=O)NC3(CCCc4ccccc43)C2=O)c(F)c1 (stereo unspecified),"inconclusive: 23.1 µM [rising, single point]",
